Inconclusive results, whose numbers are uncertain, are shown with a selection of clear calls. Where the call is inconclusive, the potency comes from a doubtful curve fit. Active and inactive are the calls of the source. Calls follow the shape of the dose curve; as a rule, active = well fitted activation curve with a large enough effect in the signal ratio; inconclusive = small, poorly fitted or top-dose-only effect, or effect the other way, or a change in a side signal; inactive = flat fitted curve, though single readings scatter; the % refers to the signal ratio.
Assay: qHTS assay to identify small molecules that stimulate interleukin-8 (IL-8) secretion (AID 651758); as to activation: 0% is about no effect
Conditions: HTRF ratio (665/615), at 92.2 µM (top of the series)
Excerpt: National Center for Advancing Translational Sciences [NCATS]
NIH Chemical Genomics Center [NCGC]
National Institutes of Environmental Health Sciences [NIEHS]
National Toxicology Program [NTP]
Interleukin-8 is a 8 kDa chemokine produced by macrophages and other cells like epithelial cells that is often associated with inflammation. Interleukin-8 secretion is a key parameter in localized inflammation. There is a growing concern for some of environmental chemicals which may contribute the increasing the incidence of inflammation. A homogeneous IL-8 assay using Time Resolved fluorescence (HTRF) technology based on Time Resolved Fluorescent Resonance Energy Transfer (TR-FRET) allows to measure IL-8 secreted from the cells in a 1536-well plate format.
THP-1 cells were dispensed at 2000 cells/5ul/well in 1536-well white solid plates. After addition of 23 nl of compound, positive controls and DMSO only, the assay plates were incubated at 37 C for 16 hrs, followed by addition of 5 uL of mixture of cryptate labeled and XL665 labeled anti-IL-8 antibodies. After the assay plates were incubated at room temperature for 1-3 hrs, the plates were measured by an EnVision plate reader.
Potency is read from the fitted curve at half-maximal effect.

| SMILES | activation |
| --- | --- |
| CN1[C@H]2CC(OC(=O)[C@H](CO)c3ccccc3)C[C@H]1[C@H]1O[C@H]12 (stereo not given in full) | inactive: 12.8% |

Same assay, conditions: HTRF ratio (665/615); activation: at 92.2 µM (top of the series)

| SMILES | activation | Potency |
| --- | --- | --- |
| O=C(Cl)c1ccccc1[N+](=O)[O-] | inconclusive: -13.3% |  |
| CCCCCO | inconclusive: 29.9% |  |
| O=[N+]([O-])c1ccc(NCCO)c(OCCO)c1 | inconclusive: 9.98% |  |
| Cc1ccc([N+](=O)[O-])c(N)c1 | inconclusive: 15.9% |  |
| C=Cc1ccccc1Cl | inactive: -2.37% |  |
| CC(C)OCC1CO1 (stereo not given) | inconclusive: -28.8% |  |
| O=C(Cl)c1cccc([N+](=O)[O-])c1 | inactive: 3.9% |  |
| CCC(C)(C)C | inactive: 21.4% |  |
| CN1[C@H]2CC(OC(=O)[C@H](CO)c3ccccc3)C[C@H]1[C@H]1O[C@H]12 (stereo not given in full) | inconclusive: -10.7% |  |
| CCCCOC(=O)COc1ccc(Cl)cc1Cl | inactive: -13.6% |  |
| ON=C1CCCCC1 | inactive: 7% |  |
| C=CCn1c(=O)n(CC=C)c(=O)n(CC=C)c1=O | inconclusive: 11.4% |  |
| NC(=O)c1cccc([N+](=O)[O-])c1 |  | inconclusive: 75 µM [activator, single point] |
| C1CCCNCC1 |  | inconclusive: 75 µM [inhibitor, single point] |
| Cc1cccc([N+](=O)[O-])c1C | inactive: -19.7% |  |
| OCC(CBr)(CBr)CBr | inconclusive: -13% |  |
| C=CC1CO1 (stereo not given) | inconclusive: -17.3% |  |
| CSCCC=O | inconclusive: -2.89% |  |
| CCCC=O |  | inconclusive: 53.1 µM [activator, partial curve, poor fit] |
| Clc1cc(Cl)cc(Cl)c1 | inactive: -28.4% |  |

Reprinted at random: 2 records from the list, in no set order.

| SMILES | activation | Potency |
| --- | --- | --- |
| Cc1cccc([N+](=O)[O-])c1C | inactive: -19.7% |  |
| OCC(CBr)(CBr)CBr | inconclusive: -13% |  |

Additional entries

| SMILES | activation | Potency |
| --- | --- | --- |
| CO[Si](CCCNCCC[Si](OC)(OC)OC)(OC)OC | inactive: -13.1% |  |
| c1ccc(COCc2ccccc2)cc1 | inactive: -0.695% |  |
| Nc1ccc(S(=O)(=O)O)cc1 | inconclusive: 5.01% |  |
| CCCCCCCCCCCCC1CO1 (stereo not given) | inconclusive: -0.382% |  |
| O=C(O)c1cccc([N+](=O)[O-])c1 |  | inconclusive: 75 µM [activator, single point] |
| CC(=O)Nc1ccc(C)cc1 | inconclusive: 7.63% |  |
| NC(N)=S | inconclusive: -5.73% |  |
| Cc1ccc(C(=O)O)cc1[N+](=O)[O-] | inconclusive: 6.92% |  |
| Cc1ccc2oc(=O)ccc2c1 | inconclusive: 3.19% |  |
| CC(=O)OC(C)=O | inconclusive: 2.37% |  |
| Cc1cccc2ccccc12 | inconclusive: 14.9% |  |
| CN(C)CCCNCCCN |  | inconclusive: 75 µM [falling, single point] |
| O=C(O)c1ccccc1C(=O)O | inactive: -20.9% |  |
| C=CC(C)(O)CCC=C(C)C (stereo not given) | inconclusive: 18% |  |
| FB(F)F | inconclusive: -15.1% |  |
| c1ccccc1 |  | inactive |
| Cc1ccc2ncccc2c1 | inconclusive: 1.41% |  |
| CC(C)(C)c1ccc(OCC2CO2)cc1 (stereo not given) | inconclusive: -14.6% |  |
| OC(CCl)CCl | inconclusive: 5.2% |  |

Source: PubChem BioAssay (NCATS)
